Values from PubChem BioAssay AID504784 (Drosophila RNAi Screening Center, 2011)
The screen tested about 17,000 reagents; shown is a random part of those that have a named target and a result. 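Each column is one replicate's B-score; the combined score over replicates was not deposited, so single values may mislead.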 Reagents against one gene are numbered here. A plus sign joins genes that one reagent is predicted to hit.

Screen: 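Fly genes whose silencing alters how much lipid cells keep in droplets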 (primary screen)
Cells: Drosophila Kc167 embryonic cells
Reagents: long dsRNA against Drosophila genes, about 250 ng dsRNA per well
Timing: 4 days
Treatment: cells fed 400 µM oleic acid bound to BSA
Read-out: 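Cells imaged and segmented; ratio of lipid droplet area to nuclear area, log-transformed, then normalised as a B-score over the screen; higher means more stored lipid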
Direction: droplet/nuclear area B-score: higher = more stored lipid (overstorage)

Gene | reagent | droplet/nuclear area B-score, replicate 1 | droplet/nuclear area B-score, replicate 2 | droplet/nuclear area B-score, replicate 3
CG17944 | 1 | 1.44 | -0.596 | –
CG4459 | 1 | -0.156 | 0.592 | –
CycA (Cyclin A) | 1 | 0.276 | 0.793 | –
CycA (Cyclin A) | 2 | 5.73 | -2.7 | –
prim (primacord) | 1 | -0.367 | -0.938 | –
Inx7 + cm | 1 | 0.614 | 0.0254 | 0.546
CG4022 | 1 | -0.604 | -0.208 | –
CG1791 | 1 | 0.455 | -1.09 | -0.252
Abca3 (ATP binding cassette subfamily A member 3) | 1 | -0.589 | 0.277 | –
CG31806 | 1 | 1.1 | 2.62 | –
CG30289 | 1 | 0.717 | -0.097 | –
Usp47 (Ubiquitin specific protease 47) | 1 | 1.28 | -1.72 | –
cyr (cypher) | 1 | 1.57 | 0.623 | –
cyr (cypher) | 2 | -0.505 | 7.72 | –
cyr (cypher) | 3 | 0.841 | -0.764 | –
sosie | 1 | -0.21 | -0.0265 | –
sosie | 2 | -0.259 | 0.00804 | –
CG4554 | 1 | 0.11 | 0.0479 | 0.931
CG1545 | 1 | 2.68 | 2.2 | –
RpL11 (Ribosomal protein L11) | 1 | 5.57 | 5.79 | –
CG31642 | 1 | 1.21 | 2.47 | –
Su(dx) (Suppressor of deltex) | 1 | -2.42 | -3.55 | –
CR18166 (pseudo) | 1 | -0.00327 | 1.02 | –
CR18166 (pseudo) | 2 | -2.63 | -1.88 | –
Rpt6R (Regulatory particle triple-A ATPase 6-related) | 1 | -1.28 | -0.0141 | –
Ekar (Eye-enriched kainate receptor) | 1 | 0.00805 | 0.866 | –
CG11436 | 1 | -1.29 | – | –
CG5174 | 1 | 0.559 | -0.368 | –
Alg11 (ALG11, alpha-1,2-mannosyltransferase) | 1 | 1.12 | 0.0348 | -1.87
LysD + LysC (retired record) | 1 | -0.248 | -0.535 | –
LysD + LysC (retired record) | 2 | -0.735 | 0.906 | –
Arl6IP1 (ADP-ribosylation factor-like 6 interacting protein 1) | 1 | -0.0285 | -0.196 | –
Dlip1 (Dorsal interacting protein 1) | 1 | 0.448 | 0.371 | -0.28
CG31459 | 1 | 1.25 | -0.771 | –

As entered above:
Value for Alg11 (ALG11, alpha-1,2-mannosyltransferase) under “droplet/nuclear area B-score, replicate 2”: 0.0348
Value of CycA (Cyclin A) #1 under “droplet/nuclear area B-score, replicate 1”: 0.276
Under “droplet/nuclear area B-score, replicate 1”, cyr (cypher) #2 reads -0.505
CG1791, droplet/nuclear area B-score, replicate 3 = -0.252
